Substitutions are numbered along the chain they refer to. Names and notes keep the numbering of the source. No constants are given. Whether binding was seen depends on the method and setting. Binding seen in cells or lysates may run through a third protein. Some binding calls cover weakened binding; strength is not graded here.

Protein sequences, listed by entry. Tags and fused reporters are not part of them.
UniProt O43143: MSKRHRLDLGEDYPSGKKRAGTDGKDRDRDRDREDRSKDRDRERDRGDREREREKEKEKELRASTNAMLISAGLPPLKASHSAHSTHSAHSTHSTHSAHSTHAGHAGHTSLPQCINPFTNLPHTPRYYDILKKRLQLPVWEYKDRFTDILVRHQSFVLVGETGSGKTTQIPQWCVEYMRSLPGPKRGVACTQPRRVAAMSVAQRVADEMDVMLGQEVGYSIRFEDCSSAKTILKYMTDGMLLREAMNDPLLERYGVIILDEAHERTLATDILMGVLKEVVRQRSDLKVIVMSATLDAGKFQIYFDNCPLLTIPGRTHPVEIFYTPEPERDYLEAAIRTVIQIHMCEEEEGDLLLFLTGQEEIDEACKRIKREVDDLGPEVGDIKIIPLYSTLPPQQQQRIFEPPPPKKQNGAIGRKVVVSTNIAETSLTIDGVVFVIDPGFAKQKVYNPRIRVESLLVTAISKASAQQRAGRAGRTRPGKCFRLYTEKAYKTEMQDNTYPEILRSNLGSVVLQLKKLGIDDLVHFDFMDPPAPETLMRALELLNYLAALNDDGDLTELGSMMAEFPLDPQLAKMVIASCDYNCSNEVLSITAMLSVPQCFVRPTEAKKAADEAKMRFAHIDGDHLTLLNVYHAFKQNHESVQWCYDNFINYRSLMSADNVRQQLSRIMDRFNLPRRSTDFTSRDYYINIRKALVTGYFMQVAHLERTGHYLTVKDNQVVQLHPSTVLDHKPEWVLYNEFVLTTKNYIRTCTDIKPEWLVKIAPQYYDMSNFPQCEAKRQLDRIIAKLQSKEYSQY
UniProt Q7Z434: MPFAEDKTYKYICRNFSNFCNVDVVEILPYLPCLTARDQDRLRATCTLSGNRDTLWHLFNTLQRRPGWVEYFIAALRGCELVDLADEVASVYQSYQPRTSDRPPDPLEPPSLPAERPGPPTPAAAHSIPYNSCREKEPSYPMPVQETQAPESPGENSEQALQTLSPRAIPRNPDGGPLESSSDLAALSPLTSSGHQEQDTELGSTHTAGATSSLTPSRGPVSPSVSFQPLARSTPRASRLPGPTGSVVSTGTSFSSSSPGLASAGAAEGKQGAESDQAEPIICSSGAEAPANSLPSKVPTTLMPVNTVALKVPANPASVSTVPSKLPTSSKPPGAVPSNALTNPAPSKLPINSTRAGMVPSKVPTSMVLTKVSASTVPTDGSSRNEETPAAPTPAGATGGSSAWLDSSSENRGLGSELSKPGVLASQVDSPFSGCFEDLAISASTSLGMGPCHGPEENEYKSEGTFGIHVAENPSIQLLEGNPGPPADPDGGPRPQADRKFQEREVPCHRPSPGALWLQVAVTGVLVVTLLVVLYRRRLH

The target in this experiment is DEAH-Box Helicase 15 (DHX15) (human (endogenous in A549-ACE2)) (UniProt O43143). The experiment is described as follows: co-IP.

With “Mitochondrial Antiviral Signalling Protein (MAVS) (from UniProt Q7Z434 1-540)”, the binding entry was “binds”.

B1: wild type NUDCD1 (L252), NudC Domain Containing 1 (protein, UniProt Q96RS6 1-583)
chain: MEVAANCSLRVKRPLLDPRFEGYKLSLEPLPCYQLELDAAVAEVKLRDDQYTLEHMHAFGMYNYLHCDSWYQDSVYYIDTLGRIMNLTVMLDTALGKPREVFRLPTDLTACDNRLCASIHFSSSTWVTLSDGTGRLYVIGTGERGNSASEKWEIMFNEELGDPFIIIHSISLLNAEEHSIATLLLRIEKEELDMKGSGFYVSLEWVTISKKNQDNKKYEIIKRDILRGKSVPHYAAIEPDGNGLMIVSYKSLTFVQAGQDLEENMDEDISEKIKEPLYYWQQTEDDLTVTIRLPEDSTKEDIQIQFLPDHINIVLKDHQFLEGKLYSSIDHESSTWIIKESNSLEISLIKKNEGLTWPELVIGDKQGELIRDSAQCAAIAERLMHLTSEELNPNPDKEKPPCNAQELEECDIFFEESSSLCRFDGNTLKTTHVVNLGSNQYLFSVIVDPKEMPCFCLRHDVDALLWQPHSSKQDDMWEHIATFNALGYVQASKRDKKFFACAPNYSYAALCECLRRVFIYRQPAPMSTVLYNRKEGRQVGQVAKQQVASLETNDPILGFQATNERLFVLTTKNLFLIKVNTEN
B1: the binding result is reported as “binds”.

B2: NUDCD1 p.L252F variant (protein, UniProt Q96RS6 1-583)
chain: B1 chain with L252F
Regarding B2, the binding result is “binds”.

Values taken from publication PMC12174371.
